Data taken from PubChem BioAssay AID1053133, deposited by Broad Institute (2014).

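Plate-reader measure of the Venus reporter marking one vaccinia stage in infected cells (the cell line is not named here); read time unknown. The test concentration is not given here. Percent change in Venus reporter signal; lower (more negative) values mean stronger inhibition of that viral stage.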

Values are in %. The controls that fix the scale are not given here. Common to all entries: measured here: Venus reporter, other viral stage. This is a side read-out of the assay, for part of the compounds, not drawn at random.

Result for CNC[C@H]1Oc2cc(C#Cc3ccc(F)cc3)ccc2S(=O)(=O)N([C@@H](C)CO)C[C@H]1C was activity change (Venus) -28.6%.
Result for C[C@@H]1CN([C@H](C)CO)C(=O)c2c(c3ccccc3n2C)-c2ccccc2CO[C@@H]1CN(C)Cc1ccc(Oc2ccccc2)cc1 was activity change (Venus) -25%.
Result for C[C@H]1CN([C@@H](C)CO)C(=O)c2c(c3ccccc3n2C)-c2ccccc2CO[C@H]1CN(C)Cc1ccc2c(c1)OCCN2C was activity change (Venus) -47.63%.
Result for C[C@@H]1CN([C@@H](C)CO)C(=O)Cc2cc(NC(=O)c3ccncc3)ccc2O[C@H]1CN(C)Cc1ccc(Oc2ccccc2)cc1 was activity change (Venus) -63.63%.
Result for C[C@@H]1CN([C@H](C)CO)C(=O)c2cc(NC(=O)Nc3ccc(C(F)(F)F)cc3)ccc2O[C@H]1CN(C)Cc1ccc(Cl)c(Cl)c1 was activity change (Venus) -48.57%.
Result for CC(C)CC#Cc1ccc2c(c1)O[C@H](CN(C)C(=O)CC1CC1)[C@H](C)CN([C@@H](C)CO)S2(=O)=O was activity change (Venus) -41.97%.
Result for C[C@@H]1CN([C@@H](C)CO)C(=O)c2c(c3ccccc3n2C)-c2ccccc2CO[C@@H]1CN(C)Cc1ccc(-c2ccccc2)cc1 was activity change (Venus) -29.04%.
Result for COc1ccccc1C#Cc1ccc2c(c1)O[C@@H](CN(C)Cc1ccncc1)[C@@H](C)CN([C@@H](C)CO)S2(=O)=O was activity change (Venus) -32.65%.
Result for C[C@H](O)C#Cc1ccc2c(c1)O[C@H](CN(C)Cc1ccc(-c3ccccc3)cc1)[C@H](C)CN([C@H](C)CO)S2(=O)=O was activity change (Venus) -55.06%.
Result for C[C@@H]1CCCCO[C@@H](CN(C)S(=O)(=O)c2ccc(F)cc2)[C@H](C)CN([C@H](C)CO)C(=O)c2cc(NS(=O)(=O)c3ccc(Cl)cc3)ccc2O1 was activity change (Venus) -48.98%.
Result for Cc1noc(C)c1S(=O)(=O)N(C)C[C@@H]1OCCCC[C@H](C)Oc2ccc(NS(=O)(=O)c3cccs3)cc2C(=O)N([C@H](C)CO)C[C@H]1C was activity change (Venus) -31.76%.
Result for CCCC#Cc1ccc2c(c1)O[C@@H](CN(C)Cc1ccccn1)[C@H](C)CN([C@@H](C)CO)S2(=O)=O was activity change (Venus) -45.46%.
Result for C[C@H](CO)N1C[C@H](C)[C@H](CN(C)C(=O)C2CCOCC2)Oc2cc(C#Cc3ccncc3)ccc2S1(=O)=O was activity change (Venus) -15.93%.
Result for C[C@@H]1CN([C@H](C)CO)C(=O)c2cc(NC(=O)c3ccccc3)ccc2O[C@@H](C)CCCCO[C@H]1CN(C)C(=O)Nc1cccc2ccccc12 was activity change (Venus) -57.99%.
Result for N#C[C@H]1[C@@H](c2ccc(-c3cccc(F)c3)cc2)[C@H](CO)N1C(=O)NC1CCCCC1 was activity change (Venus) -24.66%.
Result for OC[C@@H]1[C@H](c2ccc(C#CC3CCCC3)cc2)[C@H]2CN(CCC(F)(F)F)CCCCN12 was activity change (Venus) -71.58%.
Result for CC(C)CC#Cc1ccc2c(c1)O[C@@H](CN(C)C(=O)c1ccccc1F)[C@H](C)CN([C@H](C)CO)S2(=O)=O was activity change (Venus) -39.48%.
Result for COc1ccc2c3c(n(C)c2c1)[C@@H](CO)NCC31CCN(S(=O)(=O)c2cccc(C)c2)CC1 was activity change (Venus) -32.48%.
Result for C[C@H](CO)N1C[C@H](C)[C@@H](CN(C)S(=O)(=O)c2ccccc2)Oc2ncc(C#Cc3ccccc3F)cc2C1=O was activity change (Venus) -32.46%.
Result for C[C@@H]1CN([C@@H](C)CO)C(=O)c2c(c3ccccc3n2C)-c2ccccc2CO[C@@H]1CN(C)C(=O)Nc1cccc(F)c1 was activity change (Venus) -37.19%.
Result for Cc1cccc(-c2ccc(C3[C@@H]4CN(C(=O)Nc5ccc(F)cc5)C[C@H]3N4)cc2)c1 (some centres undefined) was activity change (Venus) -84.8%.
Result for COc1cccc(CN(C)C[C@H]2OCc3ccccc3-c3c(n(C)c4ccccc34)C(=O)N([C@H](C)CO)C[C@@H]2C)c1 was activity change (Venus) -60.14%.
Result for O=C(Cc1ccccc1)N1CC[C@@H]2[C@@H](CO)Nc3ccc(-c4ccccc4)cc3[C@@H]21 was activity change (Venus) -35.31%.
Result for Cc1ccc(S(=O)(=O)Nc2cccc3c2O[C@@H](CN(C)Cc2ccc(Oc4ccccc4)cc2)[C@@H](C)CN([C@H](C)CO)C3=O)cc1 was activity change (Venus) -37.05%.
Result for COc1ccc(CN(C)C[C@H]2OCCCC[C@@H](C)Oc3ccc(NC(=O)C4CCCCC4)cc3C(=O)N([C@@H](C)CO)C[C@H]2C)cc1 was activity change (Venus) -53.2%.
Result for COc1cccc(-c2ccc(C3[C@@H]4CN(S(=O)(=O)c5cccc(OC)c5)C[C@H]3N4)cc2)c1 (some centres undefined) was activity change (Venus) -64.87%.
Result for C[C@H]1CCCCO[C@H](CN(C)S(=O)(=O)c2ccc(Cl)cc2)[C@@H](C)CN([C@@H](C)CO)C(=O)c2cc(NC(=O)c3ccncc3)ccc2O1 was activity change (Venus) -33.98%.
Result for C[C@@H]1CN([C@@H](C)CO)C(=O)Cc2cc(NC(=O)C3CC3)ccc2O[C@@H]1CN(C)Cc1ccc(C(F)(F)F)cc1 was activity change (Venus) -46.98%.
Result for O=C(Nc1cccc(F)c1)N1CC(=O)N2[C@H](C1)[C@@H](c1ccc(-c3ccc(F)cc3)cc1)[C@@H]2CO was activity change (Venus) -65.32%.
Result for C[C@@H]1CN([C@@H](C)CO)S(=O)(=O)c2ccc(-c3ccc(C#N)cc3)cc2O[C@H]1CN(C)C(=O)Nc1cc(F)ccc1F was activity change (Venus) -30.59%.
Result for C[C@@H]1CN([C@H](C)CO)C(=O)c2cccc(NC(=O)C3CC3)c2O[C@H]1CN(C)Cc1ccc(Oc2ccccc2)cc1 was activity change (Venus) -24.82%.
Result for C[C@H](CO)N1C[C@H](C)[C@H](CN(C)Cc2ccc(Cl)c(Cl)c2)Oc2ccc(NS(=O)(=O)c3ccc(Cl)cc3)cc2C1=O was activity change (Venus) -47.26%.
Result for C[C@H](CO)N1C[C@H](C)[C@H](CN(C)Cc2ccc(C(F)(F)F)cc2)Oc2ccc(NC(=O)Nc3ccc(F)cc3)cc2C1=O was activity change (Venus) -34.25%.
Result for CCCC#Cc1ccc([C@@H]2[C@@H](CO)N3CCCCN(CC4CC4)C[C@@H]23)cc1 was activity change (Venus) -32.4%.

3 of the entries, repeated:

| structure | activity change (Venus) (%) |
|---|---|
| `COc1cccc(CN(C)C[C@H]2OCc3ccccc3-c3c(n(C)c4ccccc34)C(=O)N([C@H](C)CO)C[C@@H]2C)c1` | -60.14 |
| `COc1ccccc1C#Cc1ccc2c(c1)O[C@@H](CN(C)Cc1ccncc1)[C@@H](C)CN([C@@H](C)CO)S2(=O)=O` | -32.65 |
| `Cc1ccc(S(=O)(=O)Nc2cccc3c2O[C@@H](CN(C)Cc2ccc(Oc4ccccc4)cc2)[C@@H](C)CN([C@H](C)CO)C3=O)cc1` | -37.05 |